{"source": "PubChem BioAssay AID504444", "about": "(National Center for Advancing Translational Sciences (NCATS), 2011)", "note": "Among all 360,000 compounds or so, about 7,500 (2.1%) were called active. The shares of active, inactive and inconclusive entries below differ from those in the screen. Calls come from the whole dose curve; as a rule, active = well fitted inhibition curve with a large enough effect; inconclusive = small, poorly fitted or top-dose-only effect, or effect the other way; inactive = flat fitted curve, though single readings scatter. Where the call is inconclusive, the potency comes from a doubtful curve fit. % is set by controls: 0 for no effect and ±100 for the full control effect; potency is the fitted concentration of half-maximal effect."}
{"experiment": "Nrf2 qHTS screen for inhibitors; note: nearly all actives have a fitted effect of over 60% in size", "conditions": "A549 ARE-Fluc reporter, luciferase luminescence, 18-24 h; activity change, negative = inhibition: at 46 µM (top of the series)", "summary_of_the_method": "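Quantitative HTS in A549 cells stably bearing an antioxidant response element-firefly luciferase construct. Inhibition of Nrf2-driven transcription was scored by luminescence after 18-24 h of compound exposure at 37 °C.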"}
{"smiles": "COc1ccccc1Nc1nn2c(=O)c3ccc(C(=O)NC4CCC(C)CC4)cc3nc2s1", "note": "(stereo unspecified)", "Potency": "inconclusive: 29.1 µM [activator, single point]"}
{"smiles": "CCOc1ccc(NC(=O)CN(C)C(=O)c2ccc(N3CCCCC3)c([N+](=O)[O-])c2)cc1OCC", "Potency": "inconclusive: 29.1 µM [falling, single point]"}
{"smiles": "COc1ccc(-c2nnc(OCc3ccccc3)c3ccccc23)cc1", "Potency": "inconclusive: 18.4 µM [falling, single point]"}
{"smiles": "O=C(NCC1CCN(Cc2ccc(Cl)cc2)CC1)C1CCCN(c2ncnc3c2nc2n3CCCCC2)C1", "note": "(stereo unspecified)", "Potency": "inconclusive: 3.26 µM [falling, single point]"}
{"smiles": "Cc1cccc(N(CC(=O)Nc2ccccc2-c2ccccc2)S(=O)(=O)c2ccccc2)c1C", "Potency": "inconclusive: 32.6 µM [falling, partial curve, poor fit]"}
{"smiles": "CNC(=O)C1CCC(Cn2c(=O)c3sccc3n(CC(=O)N3CCCC3)c2=O)CC1", "note": "(stereo unspecified)", "Potency": "inconclusive: 20.6 µM [activator, partial curve, poor fit]"}
{"smiles": "Cc1cnc(NC(=O)c2cc(S(=O)(=O)N(C)C)ccc2N2CCCC2)s1", "Potency": "inconclusive: 2.06 µM [activator, partial curve, poor fit]"}
{"smiles": "COc1ccc(C)cc1Nc1nc(C)nc2c1oc1ccccc12", "Potency": "inconclusive: 29.1 µM [falling, single point]"}
{"smiles": "CC(=O)Nc1ccc(N=Cc2c(O)ccc3ccccc23)cc1", "Potency": "inconclusive: 4.61 µM [activator, single point]"}
{"smiles": "O=C1N/C(=N/NC(=O)c2cccc3ccccc23)S/C1=C\\c1ccccc1OCc1ccccc1", "Potency": "inconclusive: 20.6 µM [falling, single point]"}
{"smiles": "Fc1ccc(NC(=S)NCc2ccccc2Cl)cc1", "Potency": "inconclusive: 18.4 µM [falling, partial curve, poor fit]"}
{"smiles": "O=C1c2ccccc2C2=Nc3ccccc3SC(c3cccc(F)c3)C12", "note": "(stereo unspecified)", "Potency": "inconclusive: 29.1 µM [falling, single point]"}
{"smiles": "COc1ccc(-c2c(C)c3cc(O)ccc3oc2=O)cc1", "Potency": "inconclusive: 18.4 µM [activator, single point]"}
{"smiles": "CCN(C(=O)CSc1nc(-c2ccccc2)no1)c1cccc(C)c1", "activity change, negative = inhibition": "inactive: 7.71% [at 9.27 µM]"}
{"smiles": "CCn1c(-c2ccccc2)csc1=Nc1ccc(O)cc1", "Potency": "inconclusive: 4.11 µM [activator, partial curve, poor fit]"}
{"smiles": "COc1ccc(C2/C=C\\CN(C(=O)C3CC3)[C@H](Cc3ccccc3)C(=O)N2Cc2ccc(F)cc2)cc1", "note": "(stereo partly specified)", "Potency": "inconclusive: 29.1 µM [falling, single point]"}
{"smiles": "Cc1c(C(=O)Nc2ccccc2)sc2nc(-c3cc4ccccc4oc3=O)[nH]c(=O)c12", "Potency": "inconclusive: 23.1 µM [activator, partial curve, poor fit]"}
{"smiles": "Cc1ccc2sc(C)cc(=O)c2c1", "Potency": "inconclusive: 1.03 µM [falling, partial curve, poor fit]"}
{"smiles": "COc1ccc(Nc2ccc3ccccc3c2)cc1", "Potency": "inconclusive: 16.4 µM [activator, partial curve, poor fit]"}
{"smiles": "Fc1ccc(Nc2nc(-c3cccc(Cl)c3)c3c(n2)-c2ccccc2OC3)cc1", "Potency": "inconclusive: 32.6 µM [activator, single point]"}
{"smiles": "CCc1ccc(C2=C(C)C(N3CCC(C(=O)Nc4ccc(F)cc4)CC3)=NS2(=O)=O)cc1", "Potency": "inconclusive: 7.31 µM [falling, partial curve, poor fit]"}
{"smiles": "O=[N+]([O-])c1ccc(NC(=S)N2CCN(S(=O)(=O)c3ccccc3)CC2)cc1", "Potency": "inconclusive: 23.1 µM [falling, partial curve, poor fit]"}
{"smiles": "Cc1cc(C)c2nc(N(CCCN(C)C)C(=O)c3ccc4c(c3)CCCC4)sc2c1", "Potency": "inconclusive: 16.4 µM [falling, single point]"}
{"smiles": "COc1ccc(NS(=O)(=O)c2cccc(C(=O)NC3CCN(Cc4ccccc4)CC3)c2)cc1", "Potency": "inconclusive: 10.3 µM [falling, partial curve]"}
{"smiles": "c1ccc2sc(SN3CCOCC3)nc2c1", "activity change, negative = inhibition": "inactive: 8.6%"}
{"smiles": "O=c1c2sc3ccccc3c2n(Cc2ccc(F)cc2)c(=O)n1Cc1ccco1", "activity change, negative = inhibition": "inactive: -8.79%"}
{"smiles": "O=C(Nc1ccc(-c2nnc3n2CCCCC3)cc1)c1ccco1", "activity change, negative = inhibition": "inactive: 9.43%"}
{"smiles": "Cc1ccc(C2=NN(S(=O)(=O)c3ccccc3)C(c3ccccc3O)C2)cc1", "note": "(stereo unspecified)", "activity change, negative = inhibition": "inactive: -0.693%"}
{"smiles": "Cc1nn(CC(=O)N2CCC(C)CC2)c(=O)c2cccn12", "Potency": "inconclusive: 0.731 µM [falling, full curve, poor fit]"}
{"smiles": "CCN(CC(=O)NCc1ccc(Cl)cc1)C(=O)c1cccc(S(=O)(=O)Nc2ccc(OC)cc2)c1", "Potency": "inconclusive: 6.51 µM [falling, partial curve, poor fit]"}
{"smiles": "Cc1cc(-n2c(C)cc(C(=O)CSc3nnnn3-c3ccccc3)c2C)no1", "Potency": "inconclusive: 32.6 µM [falling, single point]"}
{"smiles": "Cc1c(C(=O)OCC(C)(C)CN(C)C)oc2ccccc12", "Potency": "inconclusive: 9.2 µM [activator, partial curve, poor fit]"}
{"smiles": "CC(C)CC(=O)NC(=S)Nc1ccc(CN2CCOCC2)cc1", "Potency": "inconclusive: 23.1 µM [activator, single point]"}
{"smiles": "NC(=O)C1(N2CCCCC2)CCN(C(=S)Nc2cccc(Cl)c2)CC1", "Potency": "inconclusive: 18.4 µM [falling, single point]"}
{"smiles": "COCCn1c(C)cc(C(=O)CSc2nc3ccccc3o2)c1C", "Potency": "inconclusive: 32.6 µM [falling, single point]"}
{"smiles": "COc1ccc(NC(=S)Nc2ccccc2F)c(OC)c1", "Potency": "inconclusive: 16.4 µM [activator, partial curve]"}
{"smiles": "COc1ccc(C(=O)Nc2ccccc2)cc1S(=O)(=O)Nc1ccc(Br)cc1", "activity change, negative = inhibition": "inactive: -3.41%"}
{"smiles": "CC(NC(=O)c1cccc(S(=O)(=O)N2CCc3ccccc32)c1)c1ccco1", "note": "(stereo unspecified)", "Potency": "inconclusive: 23.1 µM [falling, partial curve, poor fit]"}
{"smiles": "Cc1ccc(N/C=C/C(=O)c2ccccc2)cc1C", "Potency": "inconclusive: 1.84 µM [activator, partial curve]"}
{"smiles": "Cn1c(-c2ccc(F)cc2)cnc1SCC(=O)Nc1ccccc1N1CCOCC1", "Potency": "inconclusive: 2.24 µM [activator, partial curve, poor fit]"}
{"smiles": "N#Cc1ccccc1NC(=O)c1ccc2c(c1)OCO2", "Potency": "inconclusive: 14.6 µM [activator, partial curve]"}
